PubChem BioAssay AID1259425, University of Nebraska Medical Center – 2018
The deposit covers about 14,000 reagents; shown is a random part of them. Not all columns of the deposit are shown. The record does not give: the time to read-out.

Purpose: 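Compare each knockdown with KSR1 silencing using changes in marker transcripts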 (primary screen)
Cell system: HCT116 human colon cancer cells
Reagent: siRNA pool against human genes, 50 nM siRNA
Detection: 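mRNA of six signature genes measured together by branched-DNA assay after 50 nM siRNA pool, blank removed, divided by geometric mean of two housekeeping genes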
Scale: BNIP3L mRNA: higher = more BNIP3L transcript after knockdown

The first 3 entries, ahead of the listing:
ABCA1 — BNIP3L mRNA, set 1 = 0.0657
EHD2 — BNIP3L mRNA, set 1 = 0.051
CLINT1 — BNIP3L mRNA, set 1 = 0.138

Results, from the start:
ABCA1 — BNIP3L mRNA, set 1 = 0.0657
EHD2 — BNIP3L mRNA, set 1 = 0.051
CLINT1 — BNIP3L mRNA, set 1 = 0.138
LCP2 — BNIP3L mRNA, set 1 = 0.161
CD300LB — BNIP3L mRNA, set 1 = 0.098
IL13 — BNIP3L mRNA, set 1 = 0.107
IKBKE — BNIP3L mRNA, set 1 = 0.0607
DYNC1LI1 — BNIP3L mRNA, set 1 = 0.119
APAF1 — BNIP3L mRNA, set 1 = 0.119
MMD — BNIP3L mRNA, set 1 = 0.0303
CD37 — BNIP3L mRNA, set 1 = 0.123
NFKBID — BNIP3L mRNA, set 1 = 0.0972
MUC13 — BNIP3L mRNA, set 1 = 0.106
B3GALT1 — BNIP3L mRNA, set 1 = 0.172
TERT — BNIP3L mRNA, set 1 = 0.198
DEFB4A — BNIP3L mRNA, set 1 = 0.106
F8 — BNIP3L mRNA, set 1 = 0.117
MRGPRX3 — BNIP3L mRNA, set 1 = 0.326
ST3GAL5 — BNIP3L mRNA, set 1 = 0.112
ACSL4 — BNIP3L mRNA, set 1 = 0.0777
HIVEP1 — BNIP3L mRNA, set 1 = 0.14
IL12B — BNIP3L mRNA, set 1 = 0.0574
GRP — BNIP3L mRNA, set 1 = 0.061
MAP7D1 — BNIP3L mRNA, set 1 = 0.133
OSBPL3 — BNIP3L mRNA, set 1 = 0.0903
SNRPD3 — BNIP3L mRNA, set 1 = 0.112
FAM117B — BNIP3L mRNA, set 1 = 0.568
LAX1 — BNIP3L mRNA, set 1 = 0.416
